Measurements as given in PubChem BioAssay AID624246 (National Center for Advancing Translational Sciences (NCATS), 2012).
The campaign covered roughly 370,000 compounds. About 100 (0.027%) were called active. This list was built around the results that the source calls inconclusive (neither active nor inactive); the mix of calls is not that of the screen. Calls come from the whole dose curve; as a rule, active = well fitted inhibition curve with a large enough effect in the polarisation, with a control signal flat; inconclusive = small, poorly fitted or top-dose-only effect, or effect the other way, or a change in a side signal; inactive = no such curve, though single readings can be large or run the other way; the % refers to the polarisation. Potencies of inconclusive entries are doubtful fits and often do not repeat. A note “side channel” means that the fit belongs to a control or component signal, not to the main read-out.
Potency is the fitted concentration of half-maximal effect.
Throughout, for FP activity, negative = inhibition: % of control where 0% means no effect.

Sequences of proteins named here, by UniProt entry; tags and fusion partners are left off. A change or cut given only in a name is not applied to a line headed by its entry.
UniProt P11308: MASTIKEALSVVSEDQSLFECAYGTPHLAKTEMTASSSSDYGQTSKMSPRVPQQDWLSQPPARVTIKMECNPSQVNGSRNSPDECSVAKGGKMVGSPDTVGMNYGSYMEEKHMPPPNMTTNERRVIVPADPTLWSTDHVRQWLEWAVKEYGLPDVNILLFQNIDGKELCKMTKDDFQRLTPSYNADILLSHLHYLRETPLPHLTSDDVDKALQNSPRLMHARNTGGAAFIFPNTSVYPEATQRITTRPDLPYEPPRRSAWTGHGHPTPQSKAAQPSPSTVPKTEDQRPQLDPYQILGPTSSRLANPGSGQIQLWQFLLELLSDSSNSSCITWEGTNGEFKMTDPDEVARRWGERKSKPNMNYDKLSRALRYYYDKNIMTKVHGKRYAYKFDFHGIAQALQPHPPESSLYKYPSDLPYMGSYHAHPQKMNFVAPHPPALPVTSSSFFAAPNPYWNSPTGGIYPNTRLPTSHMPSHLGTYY

The compounds below were run against Transcriptional regulator ERG (Homo sapiens) (UniProt P11308) (assay: qHTS for Small Molecule Inhibitors of the ERG Ets/DNA interaction). Conditions: fluorescence polarization, His-ERG Ets domain / labelled DNA; FP activity, negative = inhibition: at 76.9 µM (top of the series).
Method in brief: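 His-tagged ERG Ets domain (1 uM in the protein solution; 300mM KCl, 50mM Tris-HCl, 1mM EDTA, 1mM DTT, pH 7.5) received compound, then a probe mix of 5 nM fluorescein-DNA and 100nM Texas-615-DNA. Fluorescence polarization was read for both dyes.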
With `COc1cc([C@H]2c3[nH]c4ccccc4c3C[C@H]3C(=O)N4[C@@H](c5cc(OC)c(OC)c(OC)c5)c5[nH]c6ccccc6c5C[C@H]4C(=O)N23)cc(OC)c1OC` the “FP activity, negative = inhibition” value was inactive: -11.1%.
In the case of `Cc1nc(SCC(=O)c2ccc(F)cc2)n[nH]1`, the “FP activity, negative = inhibition” value is reported as inactive: 1.27%.
For `C=CCn1c(SCC(=O)NCC)nc2sc3c(c2c1=O)CCC3`, the “FP activity, negative = inhibition” value was inactive: 5.96%.
With `CCN1CCN(c2oc(-c3ccc([N+](=O)[O-])cc3)nc2C#N)CC1` the Potency was inconclusive: 12.6 µM [inhibitor, partial curve, poor fit].
In the case of `O=C(Cn1cnc(S(=O)(=O)N2CCCCC2)c1)N1CCN(c2ccc([N+](=O)[O-])cc2)CC1`, the Potency is reported as inconclusive: 20 µM [inhibitor, partial curve, poor fit].
For `Cc1ccc(C(=O)N2CCN(c3ccc(NC(=O)CSc4ccc(Cl)cc4)cc3)CC2)cc1`, the Potency was inconclusive: 44.7 µM [inhibitor, single point].
`CCc1n[nH]c(=S)n1/N=C/c1ccc(N(C)c2ccccc2)cc1` was tested, and the Potency was active: 5.01 µM.
For `CCCn1c(=O)c(C(=O)Nc2cccc(C)n2)c(O)c2ccccc21`, the “FP activity, negative = inhibition” value was inactive: -10.7%.
`O=C(N/N=C/C=C\c1ccccc1[N+](=O)[O-])c1cccs1` was tested, and the Potency was inconclusive: 28.2 µM [inhibitor, partial curve, poor fit].
With `c1ccc(CN2CCC(Nc3ncnc4sccc34)CC2)cc1` the “FP activity, negative = inhibition” value was inactive: 0.279%.
`CC(C[N+](C)(C)C)OC(N)=O` (centres undefined) was tested, and the Potency was inconclusive: 8.91 µM [inhibitor, partial curve, poor fit].
In the case of `CC(C)OC(=O)c1c(N)n(CCCN2CCOCC2)c2nc3ccccc3nc12`, the Potency is reported as inconclusive: 7.08 µM [fluorescent, side channel, single point].
`O=C(NCc1ccncc1)Nc1ccc2c(c1)OCO2` was tested, and the “FP activity, negative = inhibition” value was inactive: 2.21%.
For `CN1/C(=C\C=C2/SC(=S)N(CC(=O)O)C2=O)C(C)(C)c2ccccc21`, the FP activity, negative = inhibition was inconclusive: 79% [activator].
`O=C(NNc1ccccc1)Nc1cc(Cl)ccc1Cl` was tested, and the “FP activity, negative = inhibition” value was inactive: -9.02%.
`CC(C)N(C(=O)Cn1cc(S(=O)(=O)CC(=O)N2CCOCC2)c2ccccc21)C(C)C` was tested, and the Potency was inconclusive: 4.47 µM [inhibitor, full curve, poor fit].
With `CCNC(=O)CCSc1nc(C)cc(C)n1` the Potency was inconclusive: 0.794 µM [quencher, side channel, full curve, poor fit].
With `COc1ccc(C(=O)NNC(=O)c2cc3cc([N+](=O)[O-])ccc3oc2=O)cc1OC` the “FP activity, negative = inhibition” value was inactive: 7.63%.
For `O=C1ON=C(c2ccccc2)/C1=C/c1ccc(-c2ccccc2[N+](=O)[O-])o1`, the “FP activity, negative = inhibition” value was inactive: 1.23%.
With `N/C(=N\c1nc2ccccc2o1)NC(=O)c1cccc(Br)c1` the Potency was inconclusive: 100 µM [inhibitor, single point].
For `Cc1nc2ccccc2n1CCOc1ccccc1`, the “FP activity, negative = inhibition” value was inactive: -0.0681%.
For `Cc1c(NC(=S)NC(=O)C(C)(C)C)cccc1[N+](=O)[O-]`, the “FP activity, negative = inhibition” value was inactive: -1.73%.
`CCOc1cc(CNc2cccc3[nH]c(C)nc23)ccc1OC` was tested, and the Potency was inconclusive: 28.2 µM [inhibitor, single point].
In the case of `COc1ccc(CNC(=O)c2sc(=S)n(-c3ccccc3)c2N)cc1`, the Potency is reported as inconclusive: 1.58 µM [inhibitor, partial curve, poor fit].
In the case of `N#Cc1c(SCc2c(Cl)cccc2Cl)nc(N)[nH]c1=S`, the Potency is reported as inconclusive: 50.1 µM [inhibitor, single point].
With `CCN(CC)c1ccc(/C=C(/C#N)c2nc3ccccc3[nH]2)c(OC(C)C)c1` the Potency was inconclusive: 50.1 µM [inhibitor, single point].
With `Cc1nc2ccccc2c(=O)n1/N=C/c1c(O)ccc2ccccc12` the “FP activity, negative = inhibition” value was inactive: 6.71%.
For `Cc1cc2ccccc2n2c(SCC(=O)Nc3cccc(C(F)(F)F)c3)nnc12`, the Potency was inconclusive: 39.8 µM [fluorescent, side channel, single point].
With `Cc1ccc(-n2c(Cc3noc4ccccc34)n[nH]c2=S)cc1` the Potency was inconclusive: 31.6 µM [inhibitor, single point].
`O=c1[nH]nc(CNc2ccc(O)cc2)c2ccccc12` was tested, and the Potency was inconclusive: 44.7 µM [fluorescent, side channel, single point].
`Cc1ccc(Nc2nc3ccccc3c3nnc(C)n23)cc1Cl` was tested, and the “FP activity, negative = inhibition” value was inactive: 0.245%.
With `COc1cc(NC(=O)CCCNC(=O)c2ccc(Cl)cc2)cc(OC)c1` the Potency was inconclusive: 39.8 µM [inhibitor, single point].
In the case of `CCOC(=O)c1cnc2ccc(C(=O)OC)cc2c1Nc1ccc(N2CCOCC2)cc1`, the Potency is reported as inconclusive: 50.1 µM [quencher, side channel, partial curve, poor fit].
With `COc1cc(OC)cc(C(=O)N2CCC(N3CCN(c4ccccc4OC)CC3)CC2)c1` the “FP activity, negative = inhibition” value was inactive: 9.75%.
In the case of `Cc1cccc(C)c1NC(=S)N/N=C/c1c(Cl)cccc1Cl`, the Potency is reported as inconclusive: 3.16 µM [quencher, side channel, partial curve, poor fit].
With `COc1ccc(NC(=O)COC(=O)C2C3CC4OC(=O)C2C4C3)cc1` (centres undefined) the Potency was inconclusive: 11.2 µM [inhibitor, partial curve, poor fit].
With `Cc1ccc(C=C2C(=O)c3ccccc3C2=O)s1` the Potency was inconclusive: 31.6 µM [fluorescent, side channel, single point].
In the case of `O=S(=O)(Nc1cccc(S(=O)(=O)N2CCCCC2)c1)c1ccc(Cl)s1`, the Potency is reported as inconclusive: 20 µM [inhibitor, partial curve, poor fit].
For `Cc1ccc(CNC(=O)Cn2c(=O)n(Cc3ccc(F)cc3)c(=O)c3sc4ccccc4c32)cc1`, the Potency was inconclusive: 100 µM [inhibitor, single point].
In the case of `Cc1[nH]c2ccccc2c1/C=N/NC(=O)c1cccc(F)c1`, the “FP activity, negative = inhibition” value is reported as inactive: 9.68%.
In the case of `CCN(c1ccccc1)S(=O)(=O)c1ccc(C(=O)Nc2cccc(C)n2)cc1`, the “FP activity, negative = inhibition” value is reported as inactive: -13.9%.
For `CC12CCC(C(=O)N3CCN(C(c4ccccc4)c4ccccc4)CC3)(OC1=O)C2(C)C` (centres undefined), the “FP activity, negative = inhibition” value was inactive: -3.66%.
With `CC(=O)Nc1cccc(NC(=O)c2ccccc2OCc2c(C)noc2C)c1` the Potency was inconclusive: 8.91 µM [inhibitor, partial curve].
For `CC(C)(C)NC(=O)c1ccc2c(c1)C1C3CCC(C3)C1C(c1ccccc1)N2` (centres undefined), the “FP activity, negative = inhibition” value was inactive: -6.5%.
